Hit rate of the full screen: of about 53,000 sequences, about 3,700 (7%) were called active.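 The calls were made as follows: active = gene knockdowns whose robust z-score for IL-1 alpha signal is at least 2 or at most -2, so actives lie on both sides; inactive = the rest.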 Some of the results follow.
test: Components of the Cytosolic LPS Sensing Pathway: Gene Identification via Genome-wide siRNA Screen; conditions: RAW264.7 macrophages, IL-1a HTRF, actives lie on both sides, screened at 100 nM (by protocol), cells primed 5 h with Pam3CSK4 first;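 also: robust z of the log signal after scaling to non-targeting control siRNA wells of the plate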
Summary of the method: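 Mouse macrophage line RAW264.7 is transfected with siRNA (100 nM final), grown 48h, primed with TLR ligand Pam3CSK4 5 h and given intracellular LipidA 24 h. IL-1a in supernatant is read by HTRF and viability by luminescence.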

z-score, inactive:
CCUCUUACUGCUCUAUGGATT against Tspo2 -0.182
GGAUGAGCAGAGCAUCUGUTT against Triml1 -0.243
GCGGCUAAUCGCCAAGAGATT against Arhgap9 0.317
GCAUGAGGCUAAAUUGAAATT against Phldb2 -0.62
GGACAAUCGGAACCUGUUUTT against Cacna2d2 -0.935
CCUUACUGGGCAACUUGCUTT against Olfr1199 0.0219
GGUAUAUGGACUGGUGGAUTT against Hrh2 0.41
GGUAACAGCAUUGAAGGUUTT against Cd93 0.924
GCGAUACAUAUGUGAGUUUTT against Clec3a 1.57
GGCCUUUUCUUCUUUUUGUTT against Mill1 0.653
GGAGACGUAUACAAAUGUCTT against Itga11 -1.16
GCUGAAUCUAGCUUCUCAUTT against Mad1l1 -0.4
CCAUUAGUCAGAGAAUUGUTT against Tomm20 1.15
GGAGCCUUGGUCCUUUGAUTT against Zcchc18 -0.347
GGGUUUCUUUGUGGUCUUGTT against Eif3f -0.399
GCGGUCUGUAUUCUUCUAGTT against Pdia6 -0.47
GGUUUCAAGCUCUAAAGCUTT against Ccr1 -0.405
CGAUCACACUCGAAAUCACTT against Nhsl1 -1.24
GGAAAGAAGAAGAAAUGACTT against Srp19 0.446
CCGAUGGCUUCAUGAUUCATT against Gulo -0.344
GGACGACUUAAAGCUCUUUTT against Olfr1220 -0.169
AAUUGAAGACUGUAAAUACTT against Sst 1.83
GGACUACGAAGAAAUCACUTT against Aicda -1.16
GCCACUUGUGCUAAGCUGUTT against Ager -0.768
CCAAACAGUUGGAACUGUGTT against Rusc1 -0.134
GGAAUGCAAGGAAAUGAAATT against Obp1a 0.93
CCUAUGACACAAGUGAUACTT against Trdv2-2 -1.63
GGCCAGACCUUUGUGAAUGTT against Ctse -1.96
GGAAAAGUACAAAAGUCAGTT against Kcne2 -1.09

Copied from the results shown for reference:
z-score, inactive:
GGAGACGUAUACAAAUGUCTT against Itga11 -1.16
GCUGAAUCUAGCUUCUCAUTT against Mad1l1 -0.4

Next part.

z-score, active:
GGAAGAAAACACCAUUUUUTT against Irf6 3.12

From PubChem BioAssay AID1508600 (Functional Genomics Laboratory (NCATS/FGL), 2020)
